Assay results published in the supplement of paper PMC10849652.
The other results are listed elsewhere or left out.

Sequences of proteins named here, by UniProt entry; tags and fusion partners are left off. A change or cut given only in a name is not applied to a line headed by its entry.
UniProt P31930: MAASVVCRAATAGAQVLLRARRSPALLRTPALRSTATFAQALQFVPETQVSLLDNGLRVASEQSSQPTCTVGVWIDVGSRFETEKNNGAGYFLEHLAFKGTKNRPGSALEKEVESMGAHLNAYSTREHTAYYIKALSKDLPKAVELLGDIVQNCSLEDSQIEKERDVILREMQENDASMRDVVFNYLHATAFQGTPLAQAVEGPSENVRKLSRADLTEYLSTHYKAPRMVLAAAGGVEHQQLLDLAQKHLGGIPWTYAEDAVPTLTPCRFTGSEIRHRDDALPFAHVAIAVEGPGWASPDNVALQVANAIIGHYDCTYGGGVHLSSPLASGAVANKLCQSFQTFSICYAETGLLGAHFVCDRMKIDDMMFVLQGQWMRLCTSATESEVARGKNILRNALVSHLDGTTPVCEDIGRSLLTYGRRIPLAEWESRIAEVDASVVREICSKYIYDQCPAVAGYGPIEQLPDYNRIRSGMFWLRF
UniProt O60763: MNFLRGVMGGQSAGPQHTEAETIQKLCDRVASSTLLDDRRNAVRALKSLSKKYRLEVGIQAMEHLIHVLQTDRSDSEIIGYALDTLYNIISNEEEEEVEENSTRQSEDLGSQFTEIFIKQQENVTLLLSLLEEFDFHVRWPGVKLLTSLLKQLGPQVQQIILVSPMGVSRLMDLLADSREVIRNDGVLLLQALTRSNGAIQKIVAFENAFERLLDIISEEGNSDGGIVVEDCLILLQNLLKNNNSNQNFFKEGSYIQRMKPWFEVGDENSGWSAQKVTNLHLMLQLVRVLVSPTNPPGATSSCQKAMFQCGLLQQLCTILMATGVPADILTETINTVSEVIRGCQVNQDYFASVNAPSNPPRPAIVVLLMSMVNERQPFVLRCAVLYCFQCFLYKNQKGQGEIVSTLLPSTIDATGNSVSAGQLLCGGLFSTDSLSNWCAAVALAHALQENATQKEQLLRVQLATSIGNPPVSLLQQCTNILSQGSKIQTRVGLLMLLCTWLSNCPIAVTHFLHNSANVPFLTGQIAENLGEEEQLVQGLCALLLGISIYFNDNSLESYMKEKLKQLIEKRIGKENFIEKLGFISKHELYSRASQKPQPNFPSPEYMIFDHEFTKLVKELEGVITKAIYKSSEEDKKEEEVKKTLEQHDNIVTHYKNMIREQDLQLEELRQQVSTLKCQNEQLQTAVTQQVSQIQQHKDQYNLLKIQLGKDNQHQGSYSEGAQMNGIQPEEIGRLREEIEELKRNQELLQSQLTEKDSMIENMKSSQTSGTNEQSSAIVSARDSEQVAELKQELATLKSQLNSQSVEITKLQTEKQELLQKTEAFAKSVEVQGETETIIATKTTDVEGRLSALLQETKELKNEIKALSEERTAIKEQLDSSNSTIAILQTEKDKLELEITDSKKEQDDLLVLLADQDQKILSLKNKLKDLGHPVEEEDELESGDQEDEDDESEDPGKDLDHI
UniProt Q6PHR2: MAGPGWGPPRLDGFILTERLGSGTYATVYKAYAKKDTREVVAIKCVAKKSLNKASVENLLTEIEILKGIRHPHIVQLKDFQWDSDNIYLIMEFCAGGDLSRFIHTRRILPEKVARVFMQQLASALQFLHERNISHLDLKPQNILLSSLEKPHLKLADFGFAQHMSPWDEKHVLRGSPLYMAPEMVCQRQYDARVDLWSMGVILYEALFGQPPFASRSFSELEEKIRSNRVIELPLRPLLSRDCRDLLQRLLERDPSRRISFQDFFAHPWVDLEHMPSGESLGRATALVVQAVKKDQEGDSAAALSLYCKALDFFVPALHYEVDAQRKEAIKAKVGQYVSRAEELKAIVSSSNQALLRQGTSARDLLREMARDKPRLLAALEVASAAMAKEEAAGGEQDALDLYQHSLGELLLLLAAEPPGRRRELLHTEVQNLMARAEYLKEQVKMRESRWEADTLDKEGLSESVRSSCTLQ
UniProt P55072, whole entry, looked up: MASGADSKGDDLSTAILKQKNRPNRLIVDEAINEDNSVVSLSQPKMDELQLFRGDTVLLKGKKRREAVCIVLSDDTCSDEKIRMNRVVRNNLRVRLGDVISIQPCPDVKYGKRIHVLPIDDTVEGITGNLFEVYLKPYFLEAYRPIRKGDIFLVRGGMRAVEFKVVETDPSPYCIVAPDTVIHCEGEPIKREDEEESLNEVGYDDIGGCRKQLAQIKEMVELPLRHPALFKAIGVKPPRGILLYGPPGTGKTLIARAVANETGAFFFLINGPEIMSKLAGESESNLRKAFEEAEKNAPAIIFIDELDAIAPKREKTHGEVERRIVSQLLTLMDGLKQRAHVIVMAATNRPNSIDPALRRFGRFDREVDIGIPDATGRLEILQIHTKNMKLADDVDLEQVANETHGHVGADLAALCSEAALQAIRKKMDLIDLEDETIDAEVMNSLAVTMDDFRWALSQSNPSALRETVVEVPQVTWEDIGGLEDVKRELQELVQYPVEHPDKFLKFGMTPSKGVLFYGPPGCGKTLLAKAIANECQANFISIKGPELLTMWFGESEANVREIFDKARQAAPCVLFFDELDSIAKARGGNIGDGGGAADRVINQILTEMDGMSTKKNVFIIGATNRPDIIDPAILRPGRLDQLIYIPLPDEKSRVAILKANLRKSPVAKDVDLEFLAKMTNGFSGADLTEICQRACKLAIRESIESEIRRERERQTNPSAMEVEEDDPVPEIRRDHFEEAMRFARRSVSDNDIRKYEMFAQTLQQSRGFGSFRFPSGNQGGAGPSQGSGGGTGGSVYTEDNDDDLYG
UniProt P50552: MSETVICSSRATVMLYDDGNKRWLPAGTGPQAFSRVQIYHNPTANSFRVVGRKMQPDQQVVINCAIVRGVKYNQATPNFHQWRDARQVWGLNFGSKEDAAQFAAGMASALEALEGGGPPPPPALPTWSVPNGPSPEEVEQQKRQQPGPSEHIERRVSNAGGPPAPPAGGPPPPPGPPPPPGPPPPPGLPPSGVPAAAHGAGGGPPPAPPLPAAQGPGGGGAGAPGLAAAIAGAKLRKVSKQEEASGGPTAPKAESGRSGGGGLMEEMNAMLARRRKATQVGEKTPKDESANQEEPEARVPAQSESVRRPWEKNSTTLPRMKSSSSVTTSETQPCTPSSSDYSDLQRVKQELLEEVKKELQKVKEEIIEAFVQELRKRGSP
UniProt P10746: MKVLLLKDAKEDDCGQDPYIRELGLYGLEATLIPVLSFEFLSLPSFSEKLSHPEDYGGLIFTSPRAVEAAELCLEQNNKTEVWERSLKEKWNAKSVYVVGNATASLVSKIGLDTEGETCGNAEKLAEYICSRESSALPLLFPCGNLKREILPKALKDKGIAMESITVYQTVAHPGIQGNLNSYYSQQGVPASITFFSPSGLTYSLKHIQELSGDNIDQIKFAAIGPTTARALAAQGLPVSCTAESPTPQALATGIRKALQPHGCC
UniProt P07919: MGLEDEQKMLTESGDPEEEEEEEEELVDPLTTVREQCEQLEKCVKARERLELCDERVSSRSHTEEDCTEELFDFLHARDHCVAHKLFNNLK
UniProt Q96RL1: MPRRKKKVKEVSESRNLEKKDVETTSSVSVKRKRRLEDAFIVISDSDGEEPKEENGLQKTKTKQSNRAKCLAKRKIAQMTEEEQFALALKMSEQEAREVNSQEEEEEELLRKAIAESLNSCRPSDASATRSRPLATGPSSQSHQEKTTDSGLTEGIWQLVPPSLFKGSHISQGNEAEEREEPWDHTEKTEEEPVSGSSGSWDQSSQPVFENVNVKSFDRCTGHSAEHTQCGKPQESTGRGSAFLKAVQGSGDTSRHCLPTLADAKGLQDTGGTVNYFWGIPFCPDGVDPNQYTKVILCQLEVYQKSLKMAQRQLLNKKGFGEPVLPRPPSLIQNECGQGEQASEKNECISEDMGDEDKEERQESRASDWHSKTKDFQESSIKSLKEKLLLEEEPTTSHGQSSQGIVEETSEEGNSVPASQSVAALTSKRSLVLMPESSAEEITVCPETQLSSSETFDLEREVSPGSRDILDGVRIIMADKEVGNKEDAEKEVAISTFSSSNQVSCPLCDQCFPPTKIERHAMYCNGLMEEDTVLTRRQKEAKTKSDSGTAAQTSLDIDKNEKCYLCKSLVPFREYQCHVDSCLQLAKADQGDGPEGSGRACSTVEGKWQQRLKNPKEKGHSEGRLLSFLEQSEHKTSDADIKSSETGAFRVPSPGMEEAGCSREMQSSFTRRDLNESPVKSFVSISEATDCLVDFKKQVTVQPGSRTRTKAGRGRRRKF
UniProt A6NIH7: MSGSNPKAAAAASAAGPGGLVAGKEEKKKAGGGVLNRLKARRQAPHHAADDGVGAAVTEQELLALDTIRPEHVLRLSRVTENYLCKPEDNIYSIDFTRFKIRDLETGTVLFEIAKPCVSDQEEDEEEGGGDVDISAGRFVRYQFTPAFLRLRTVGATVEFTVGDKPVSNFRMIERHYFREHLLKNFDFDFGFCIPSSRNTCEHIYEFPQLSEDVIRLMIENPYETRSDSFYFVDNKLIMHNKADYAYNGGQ
UniProt Q9Y277: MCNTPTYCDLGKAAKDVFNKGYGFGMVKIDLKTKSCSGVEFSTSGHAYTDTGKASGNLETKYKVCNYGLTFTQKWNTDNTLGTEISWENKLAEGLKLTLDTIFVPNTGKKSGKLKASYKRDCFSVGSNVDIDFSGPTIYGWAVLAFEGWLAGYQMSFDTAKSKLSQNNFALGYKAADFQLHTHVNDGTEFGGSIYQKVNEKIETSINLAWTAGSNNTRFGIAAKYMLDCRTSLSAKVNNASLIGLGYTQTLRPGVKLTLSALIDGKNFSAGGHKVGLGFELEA
UniProt O14957: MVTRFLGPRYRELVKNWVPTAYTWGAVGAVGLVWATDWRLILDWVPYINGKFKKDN
UniProt O95292, whole entry, looked up: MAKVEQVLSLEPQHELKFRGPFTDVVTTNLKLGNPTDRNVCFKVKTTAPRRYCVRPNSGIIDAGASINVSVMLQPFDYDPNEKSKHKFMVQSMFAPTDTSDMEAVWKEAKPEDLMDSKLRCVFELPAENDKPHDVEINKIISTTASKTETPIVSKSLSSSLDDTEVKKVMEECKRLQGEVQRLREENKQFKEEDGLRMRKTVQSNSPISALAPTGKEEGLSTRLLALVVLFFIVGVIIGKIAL
UniProt Q9BRT2: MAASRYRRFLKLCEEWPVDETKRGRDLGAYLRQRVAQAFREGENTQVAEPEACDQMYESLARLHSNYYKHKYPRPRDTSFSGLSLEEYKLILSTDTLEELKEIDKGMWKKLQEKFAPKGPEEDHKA
UniProt Q96K76: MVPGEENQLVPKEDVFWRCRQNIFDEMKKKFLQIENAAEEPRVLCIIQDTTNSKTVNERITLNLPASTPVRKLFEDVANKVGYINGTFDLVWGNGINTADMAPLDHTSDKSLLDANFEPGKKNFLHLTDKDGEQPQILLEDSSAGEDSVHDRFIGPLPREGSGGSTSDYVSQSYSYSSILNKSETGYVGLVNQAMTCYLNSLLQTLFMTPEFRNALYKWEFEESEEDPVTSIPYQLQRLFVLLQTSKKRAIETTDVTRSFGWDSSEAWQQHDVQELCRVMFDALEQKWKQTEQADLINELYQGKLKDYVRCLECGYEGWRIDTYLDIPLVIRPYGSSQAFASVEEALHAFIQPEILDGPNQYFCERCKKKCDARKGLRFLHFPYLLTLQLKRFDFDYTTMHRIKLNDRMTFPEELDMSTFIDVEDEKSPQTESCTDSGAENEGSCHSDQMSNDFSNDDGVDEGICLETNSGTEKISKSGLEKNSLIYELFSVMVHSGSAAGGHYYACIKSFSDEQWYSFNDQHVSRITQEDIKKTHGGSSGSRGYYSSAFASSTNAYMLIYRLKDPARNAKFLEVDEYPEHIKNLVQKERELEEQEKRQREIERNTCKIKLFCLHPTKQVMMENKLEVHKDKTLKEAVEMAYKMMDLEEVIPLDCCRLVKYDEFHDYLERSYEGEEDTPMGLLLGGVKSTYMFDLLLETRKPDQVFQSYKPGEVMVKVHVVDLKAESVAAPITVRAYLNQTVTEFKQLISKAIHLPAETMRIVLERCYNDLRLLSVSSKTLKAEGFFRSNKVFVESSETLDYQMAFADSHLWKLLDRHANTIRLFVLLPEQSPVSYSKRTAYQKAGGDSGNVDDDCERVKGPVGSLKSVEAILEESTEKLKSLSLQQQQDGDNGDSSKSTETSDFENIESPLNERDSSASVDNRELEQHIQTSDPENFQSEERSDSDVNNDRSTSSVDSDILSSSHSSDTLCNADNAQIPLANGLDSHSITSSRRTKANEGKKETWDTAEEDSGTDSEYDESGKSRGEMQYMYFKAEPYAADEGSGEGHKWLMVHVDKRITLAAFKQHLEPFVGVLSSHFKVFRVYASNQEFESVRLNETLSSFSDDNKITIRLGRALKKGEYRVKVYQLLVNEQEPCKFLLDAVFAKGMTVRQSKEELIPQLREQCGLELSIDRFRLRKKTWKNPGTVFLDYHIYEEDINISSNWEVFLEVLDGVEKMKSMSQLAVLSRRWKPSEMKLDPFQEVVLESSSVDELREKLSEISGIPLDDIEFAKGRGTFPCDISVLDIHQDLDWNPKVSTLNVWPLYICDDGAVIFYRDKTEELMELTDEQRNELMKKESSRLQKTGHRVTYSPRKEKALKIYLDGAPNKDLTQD

These targets were tested with CS(=O)(=O)CCNCc1ccc(-c2ccc3ncnc(Nc4ccc(OCc5cccc(F)c5)c(Cl)c4)c3c2)o1 [lapatinib] (assay: log2 fold change, soluble protein after heating vs DMSO (PISA); higher = thermal stabilisation; K562 lysate, 10 uM; active = over 0.2 and 3.5 SD of the protein, either way, in both replicates (recomputed)).
How it was run: (§1)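 Pellets of K562 cells were dounce-homogenised in PBS pH 7.4 with 1 mM MgCl2, and the crude extract was held at 1 mg/mL protein for a 30 min treatment with 10 μM compound. Aliquots were heated for 3 min over 48°C-58°C and pooled before NP-40 was added to 0.5% at 4°C. The supernatant from 21,000xg for 90 min was quantified by TMTpro 16plex LC-MS/MS with channel sums equalised. Values are reported from duplicates as log-two fold change in thermal stability relative to solvent controls.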
For UQCRC1 (UniProt P31930), the log2 fold change was inactive: -0.036. With VDAC2 (UniProt Q5JSD1) the log2 fold change was inactive: 0.008. USO1 (UniProt O60763) was tested, and the log2 fold change was inactive: 0.19. ULK3 isoform 4 (UniProt Q6PHR2) was tested, and the log2 fold change was inactive: 0.059. USP1 (UniProt O94782) was tested, and the log2 fold change was inactive: 0.05. With VCP (UniProt P55072) the log2 fold change was inactive: 0.01. USP48 (UniProt Q86UV5) was tested, and the log2 fold change was inactive: -0.05. With UQCRFS1 (UniProt P47985) the log2 fold change was inactive: 0.01. VASP (UniProt P50552) was tested, and the log2 fold change was inactive: -0.006. For UROS (UniProt P10746), the log2 fold change was inactive: 0.013. In the case of UGP2 (UniProt Q16851), the log2 fold change is reported as inactive: -0.021. In the case of UVRAG (UniProt Q9P2Y5), the log2 fold change is reported as inactive: -0.042. With UNC5B (UniProt Q8IZJ1) the log2 fold change was inactive: -0.178. For USP11 (UniProt P51784), the log2 fold change was inactive: -0.037. USP34 (UniProt Q70CQ2) was tested, and the log2 fold change was inactive: -0.002. In the case of URI1 isoform 4 (UniProt O94763), the log2 fold change is reported as inactive: -0.023. USO1 isoform 2 (UniProt O60763) was tested, and the log2 fold change was inactive: -0.014. In the case of UTP18 (UniProt Q9Y5J1), the log2 fold change is reported as inactive: 0.032. For ULBP1 (UniProt Q9BZM6), the log2 fold change was inactive: 0.039. UQCRH (UniProt P07919) was tested, and the log2 fold change was inactive: 0.009. In the case of UCKL1 (UniProt Q9NWZ5), the log2 fold change is reported as inactive: -0.018. In the case of UIMC1 (UniProt Q96RL1), the log2 fold change is reported as inactive: 0.013. In the case of UNC119B (UniProt A6NIH7), the log2 fold change is reported as inactive: 0.024. For VDAC3 (UniProt Q9Y277), the log2 fold change was inactive: -0.011. For UNC93B1 (UniProt Q9H1C4), the log2 fold change was inactive: -0.051. In the case of USP14 (UniProt P54578), the log2 fold change is reported as inactive: 0. For UQCR11 (UniProt O14957), the log2 fold change was inactive: 0.014. In the case of UMPS (UniProt P11172), the log2 fold change is reported as inactive: -0.014. VAPB (UniProt O95292) was tested, and the log2 fold change was inactive: 0.011. ULBP2 (UniProt Q9BZM5) was tested, and the log2 fold change was inactive: -0.067. In the case of UQCC2 (UniProt Q9BRT2), the log2 fold change is reported as inactive: 0.007. With UNC45A (UniProt Q9H3U1) the log2 fold change was inactive: -0.006. In the case of USP47 isoform 4 (UniProt Q96K76), the log2 fold change is reported as inactive: -0.035.

These targets were tested with CS(=O)(=O)N1CCN(Cc2cc3nc(-c4cccc5[nH]ncc45)nc(N4CCOCC4)c3s2)CC1 [pictilisib] in the same assay as above.
How it was run: as §1
UQCRC1 (UniProt P31930) was tested, and the log2 fold change was inactive: 0.01. For VDAC2 (UniProt Q5JSD1), the log2 fold change was inactive: -0.024. USO1 (UniProt O60763) was tested, and the log2 fold change was inactive: -0.067. In the case of ULK3 isoform 4 (UniProt Q6PHR2), the log2 fold change is reported as inactive: -0.008. In the case of USP1 (UniProt O94782), the log2 fold change is reported as inactive: 0. With VCP (UniProt P55072) the log2 fold change was inactive: 0.009. USP48 (UniProt Q86UV5) was tested, and the log2 fold change was inactive: 0.037. For UQCRFS1 (UniProt P47985), the log2 fold change was inactive: -0.054. For VASP (UniProt P50552), the log2 fold change was inactive: 0.004. In the case of UROS (UniProt P10746), the log2 fold change is reported as inactive: -0.025. UGP2 (UniProt Q16851) was tested, and the log2 fold change was inactive: -0.002. UVRAG (UniProt Q9P2Y5) was tested, and the log2 fold change was inactive: -0.001. UNC5B (UniProt Q8IZJ1) was tested, and the log2 fold change was inactive: -0.079. In the case of USP11 (UniProt P51784), the log2 fold change is reported as inactive: 0.014. For USP34 (UniProt Q70CQ2), the log2 fold change was inactive: -0.008. With URI1 isoform 4 (UniProt O94763) the log2 fold change was inactive: -0.008. In the case of USO1 isoform 2 (UniProt O60763), the log2 fold change is reported as inactive: 0.008. In the case of UTP18 (UniProt Q9Y5J1), the log2 fold change is reported as inactive: 0.125. With ULBP1 (UniProt Q9BZM6) the log2 fold change was inactive: -0.026. With UQCRH (UniProt P07919) the log2 fold change was inactive: -0.066. With UCKL1 (UniProt Q9NWZ5) the log2 fold change was inactive: 0.01. With UIMC1 (UniProt Q96RL1) the log2 fold change was inactive: 0.002. For UNC119B (UniProt A6NIH7), the log2 fold change was inactive: -0.016. With VDAC3 (UniProt Q9Y277) the log2 fold change was inactive: -0.033. For UNC93B1 (UniProt Q9H1C4), the log2 fold change was inactive: 0.064. In the case of USP14 (UniProt P54578), the log2 fold change is reported as inactive: 0.009. With UQCR11 (UniProt O14957) the log2 fold change was inactive: -0.186. For UMPS (UniProt P11172), the log2 fold change was inactive: -0.019. In the case of VAPB (UniProt O95292), the log2 fold change is reported as inactive: 0.031. For ULBP2 (UniProt Q9BZM5), the log2 fold change was inactive: 0.07. UQCC2 (UniProt Q9BRT2) was tested, and the log2 fold change was inactive: 0.009. UNC45A (UniProt Q9H3U1) was tested, and the log2 fold change was inactive: -0.026. For USP47 isoform 4 (UniProt Q96K76), the log2 fold change was inactive: -0.016.

Each target was assayed with C[C@@H](Oc1cc(-c2cnn(C3CCNCC3)c2)cnc1N)c1c(Cl)ccc(F)c1Cl [crizotinib] in the same assay as above.
How it was run: as §1
In the case of UQCRC1 (UniProt P31930), the log2 fold change is reported as inactive: 0.01. In the case of VDAC2 (UniProt Q5JSD1), the log2 fold change is reported as inactive: -0.033. For USO1 (UniProt O60763), the log2 fold change was inactive: -0.026. In the case of ULK3 isoform 4 (UniProt Q6PHR2), the log2 fold change is reported as inactive: -0.088. USP1 (UniProt O94782) was tested, and the log2 fold change was inactive: 0.013. In the case of VCP (UniProt P55072), the log2 fold change is reported as inactive: 0.028. USP48 (UniProt Q86UV5) was tested, and the log2 fold change was inactive: 0.13. UQCRFS1 (UniProt P47985) was tested, and the log2 fold change was inactive: 0.072. With VASP (UniProt P50552) the log2 fold change was inactive: 0.007. With UROS (UniProt P10746) the log2 fold change was inactive: -0.033. UGP2 (UniProt Q16851) was tested, and the log2 fold change was inactive: -0.001. With UVRAG (UniProt Q9P2Y5) the log2 fold change was inactive: -0.05. UNC5B (UniProt Q8IZJ1) was tested, and the log2 fold change was inactive: -0.046. For USP11 (UniProt P51784), the log2 fold change was inactive: -0.044. With USP34 (UniProt Q70CQ2) the log2 fold change was inactive: -0.094. URI1 isoform 4 (UniProt O94763) was tested, and the log2 fold change was inactive: 0.044. In the case of USO1 isoform 2 (UniProt O60763), the log2 fold change is reported as inactive: -0.014. For UTP18 (UniProt Q9Y5J1), the log2 fold change was inactive: -0.05. For ULBP1 (UniProt Q9BZM6), the log2 fold change was inactive: -0.037. UQCRH (UniProt P07919) was tested, and the log2 fold change was inactive: 0.035. For UCKL1 (UniProt Q9NWZ5), the log2 fold change was inactive: -0.053. UIMC1 (UniProt Q96RL1) was tested, and the log2 fold change was inactive: -0.003. In the case of UNC119B (UniProt A6NIH7), the log2 fold change is reported as inactive: -0.01. For VDAC3 (UniProt Q9Y277), the log2 fold change was inactive: -0.005. For UNC93B1 (UniProt Q9H1C4), the log2 fold change was inactive: 0.029. In the case of USP14 (UniProt P54578), the log2 fold change is reported as inactive: -0.002. For UQCR11 (UniProt O14957), the log2 fold change was inactive: 0.097. For UMPS (UniProt P11172), the log2 fold change was inactive: -0.012. VAPB (UniProt O95292) was tested, and the log2 fold change was inactive: 0.026. ULBP2 (UniProt Q9BZM5) was tested, and the log2 fold change was inactive: -0.07. UQCC2 (UniProt Q9BRT2) was tested, and the log2 fold change was inactive: 0.036. UNC45A (UniProt Q9H3U1) was tested, and the log2 fold change was inactive: -0.045. USP47 isoform 4 (UniProt Q96K76) was tested, and the log2 fold change was inactive: -0.022.
